Assay results reported in paper PMC4890593.

Sequences of proteins named here, by UniProt entry; tags and fusion partners are left off.
UniProt Q9H0B6: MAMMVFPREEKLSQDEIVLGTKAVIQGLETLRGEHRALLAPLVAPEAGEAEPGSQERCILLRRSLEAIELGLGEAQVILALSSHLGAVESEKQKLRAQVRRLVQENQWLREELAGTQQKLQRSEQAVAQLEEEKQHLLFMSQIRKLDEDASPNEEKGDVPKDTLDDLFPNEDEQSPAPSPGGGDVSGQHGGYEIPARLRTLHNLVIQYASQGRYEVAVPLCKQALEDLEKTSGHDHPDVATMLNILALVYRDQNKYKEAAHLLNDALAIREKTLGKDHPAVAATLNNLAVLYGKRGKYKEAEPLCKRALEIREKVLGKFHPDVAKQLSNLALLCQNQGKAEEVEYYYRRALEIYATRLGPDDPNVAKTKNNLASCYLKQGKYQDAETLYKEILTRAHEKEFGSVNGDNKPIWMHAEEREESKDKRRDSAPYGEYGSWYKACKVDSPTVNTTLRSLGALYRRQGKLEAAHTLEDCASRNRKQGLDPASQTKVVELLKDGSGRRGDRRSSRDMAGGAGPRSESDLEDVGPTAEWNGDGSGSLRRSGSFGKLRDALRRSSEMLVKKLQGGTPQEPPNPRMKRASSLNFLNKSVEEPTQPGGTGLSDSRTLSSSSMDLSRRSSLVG
UniProt P33176: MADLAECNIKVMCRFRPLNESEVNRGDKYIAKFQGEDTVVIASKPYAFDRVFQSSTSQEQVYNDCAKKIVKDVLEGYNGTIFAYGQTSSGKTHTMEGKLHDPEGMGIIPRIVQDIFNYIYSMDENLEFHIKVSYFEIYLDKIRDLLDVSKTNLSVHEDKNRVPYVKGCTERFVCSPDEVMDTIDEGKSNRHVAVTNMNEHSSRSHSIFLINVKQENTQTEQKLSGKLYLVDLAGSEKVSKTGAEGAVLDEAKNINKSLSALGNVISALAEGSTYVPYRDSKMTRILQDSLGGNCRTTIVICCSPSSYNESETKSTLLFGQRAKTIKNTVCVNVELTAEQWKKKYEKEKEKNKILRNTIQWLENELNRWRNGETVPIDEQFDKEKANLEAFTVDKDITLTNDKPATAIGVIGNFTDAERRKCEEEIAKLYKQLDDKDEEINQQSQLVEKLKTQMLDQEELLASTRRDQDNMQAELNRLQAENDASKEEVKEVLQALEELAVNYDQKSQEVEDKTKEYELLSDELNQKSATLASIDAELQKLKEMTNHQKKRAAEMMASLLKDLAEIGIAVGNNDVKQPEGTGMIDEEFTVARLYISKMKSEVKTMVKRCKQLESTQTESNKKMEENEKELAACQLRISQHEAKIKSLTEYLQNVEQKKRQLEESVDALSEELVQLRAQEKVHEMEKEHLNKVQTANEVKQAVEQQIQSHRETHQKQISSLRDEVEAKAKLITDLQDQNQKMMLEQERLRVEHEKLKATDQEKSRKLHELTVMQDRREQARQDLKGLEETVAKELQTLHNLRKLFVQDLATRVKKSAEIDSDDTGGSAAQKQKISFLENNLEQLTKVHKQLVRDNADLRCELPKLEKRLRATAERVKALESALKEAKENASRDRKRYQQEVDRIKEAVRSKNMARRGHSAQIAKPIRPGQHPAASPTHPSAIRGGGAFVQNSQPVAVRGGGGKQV
UniProt Q9BSJ2: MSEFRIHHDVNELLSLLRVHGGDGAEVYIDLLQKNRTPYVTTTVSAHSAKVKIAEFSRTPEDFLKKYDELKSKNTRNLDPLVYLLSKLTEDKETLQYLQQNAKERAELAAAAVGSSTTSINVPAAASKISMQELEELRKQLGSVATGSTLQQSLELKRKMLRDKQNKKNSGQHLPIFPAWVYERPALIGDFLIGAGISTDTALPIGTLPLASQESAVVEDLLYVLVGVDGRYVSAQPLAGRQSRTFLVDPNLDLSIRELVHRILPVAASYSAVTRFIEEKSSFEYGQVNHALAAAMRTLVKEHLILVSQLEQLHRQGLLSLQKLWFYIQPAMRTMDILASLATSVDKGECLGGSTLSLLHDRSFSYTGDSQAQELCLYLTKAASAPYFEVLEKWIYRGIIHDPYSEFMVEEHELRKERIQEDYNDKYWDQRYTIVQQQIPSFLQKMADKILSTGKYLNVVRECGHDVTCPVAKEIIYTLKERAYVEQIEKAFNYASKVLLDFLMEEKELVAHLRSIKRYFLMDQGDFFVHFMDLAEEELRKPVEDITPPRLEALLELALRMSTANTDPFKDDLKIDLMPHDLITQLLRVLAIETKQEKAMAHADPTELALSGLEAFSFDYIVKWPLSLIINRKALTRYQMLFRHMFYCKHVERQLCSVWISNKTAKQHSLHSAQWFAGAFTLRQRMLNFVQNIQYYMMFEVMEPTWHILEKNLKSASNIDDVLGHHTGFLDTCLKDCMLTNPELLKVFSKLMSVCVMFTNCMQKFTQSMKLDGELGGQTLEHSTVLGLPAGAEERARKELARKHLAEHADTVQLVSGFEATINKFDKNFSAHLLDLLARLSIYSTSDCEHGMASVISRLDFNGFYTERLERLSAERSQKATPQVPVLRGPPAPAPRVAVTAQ

The substances below were run against T1, GST-14-3-3γ (UniProt P61981) (assay: affinity purification with mass spectrometry; GST-14-3-3γ as bait on lysates of 14-3-3γ-knockdown and vector-control cells; bands of differential intensity cut from a 6-12% gradient SDS-PAGE gel; MALDI-TOF/TOF; only the target purified).
T1 sequence: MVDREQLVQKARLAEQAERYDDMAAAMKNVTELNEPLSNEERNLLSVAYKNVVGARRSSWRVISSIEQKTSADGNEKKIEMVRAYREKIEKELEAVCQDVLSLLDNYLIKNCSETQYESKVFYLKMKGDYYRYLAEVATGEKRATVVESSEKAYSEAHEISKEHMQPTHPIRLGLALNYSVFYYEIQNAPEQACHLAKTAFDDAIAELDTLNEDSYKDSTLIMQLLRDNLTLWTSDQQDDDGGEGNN

binding, binds:
KLC2 (from UniProt Q9H0B6 1-622)
KIF5B (from UniProt P33176 1-963)
GCP2 (from UniProt Q9BSJ2 1-902)

These are yes or no findings as the source states them, for the method shown. Binding seen in cells or lysates may run through a third protein. A yes stands for co-enrichment or nearness to the bait. Other partners may have been found. Tags and fused reporters may be left off the sequences shown.
